Results reported in the supplement of paper PMC10849652.
This is one part of the list.

Chains of the proteins cited; added tags and fusions are not shown. Lines headed by an entry give the natural chain unless they say otherwise; changes in a name come on top.
UniProt Q9BRX8: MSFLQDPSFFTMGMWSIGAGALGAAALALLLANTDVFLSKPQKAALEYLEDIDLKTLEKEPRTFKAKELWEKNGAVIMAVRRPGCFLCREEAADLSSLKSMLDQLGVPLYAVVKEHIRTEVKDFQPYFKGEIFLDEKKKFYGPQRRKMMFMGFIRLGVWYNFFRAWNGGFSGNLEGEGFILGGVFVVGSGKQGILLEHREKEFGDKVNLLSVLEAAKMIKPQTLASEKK
UniProt Q9UNM6: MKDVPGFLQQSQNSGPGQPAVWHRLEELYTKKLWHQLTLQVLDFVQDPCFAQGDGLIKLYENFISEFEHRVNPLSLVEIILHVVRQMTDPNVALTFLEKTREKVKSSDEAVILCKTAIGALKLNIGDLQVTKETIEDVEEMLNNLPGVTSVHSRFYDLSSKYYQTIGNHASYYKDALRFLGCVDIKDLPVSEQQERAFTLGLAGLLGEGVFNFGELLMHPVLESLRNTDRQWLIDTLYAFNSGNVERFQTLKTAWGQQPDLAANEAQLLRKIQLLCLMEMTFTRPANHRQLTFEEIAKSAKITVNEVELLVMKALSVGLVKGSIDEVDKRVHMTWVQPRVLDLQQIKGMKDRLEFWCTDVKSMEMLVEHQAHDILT
UniProt P25786: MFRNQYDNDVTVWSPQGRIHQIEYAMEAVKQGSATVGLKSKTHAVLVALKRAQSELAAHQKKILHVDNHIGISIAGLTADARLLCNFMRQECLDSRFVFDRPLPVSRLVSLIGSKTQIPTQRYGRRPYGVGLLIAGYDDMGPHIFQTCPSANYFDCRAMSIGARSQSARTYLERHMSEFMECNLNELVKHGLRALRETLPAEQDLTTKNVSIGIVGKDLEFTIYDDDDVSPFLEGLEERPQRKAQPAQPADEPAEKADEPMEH
UniProt Q8WU10: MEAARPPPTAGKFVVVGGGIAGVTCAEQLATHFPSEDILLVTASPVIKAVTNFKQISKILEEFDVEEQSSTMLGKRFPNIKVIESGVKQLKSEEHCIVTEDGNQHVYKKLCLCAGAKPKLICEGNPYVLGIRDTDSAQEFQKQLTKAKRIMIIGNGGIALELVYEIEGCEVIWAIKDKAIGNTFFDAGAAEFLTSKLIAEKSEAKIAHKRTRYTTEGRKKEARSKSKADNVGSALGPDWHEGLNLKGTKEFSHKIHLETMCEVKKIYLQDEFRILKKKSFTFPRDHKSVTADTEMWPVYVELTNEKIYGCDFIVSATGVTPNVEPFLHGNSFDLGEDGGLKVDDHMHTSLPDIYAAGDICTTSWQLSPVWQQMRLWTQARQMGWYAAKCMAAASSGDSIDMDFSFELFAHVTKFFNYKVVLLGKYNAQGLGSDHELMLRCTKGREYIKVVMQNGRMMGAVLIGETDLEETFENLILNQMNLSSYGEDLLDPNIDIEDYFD
UniProt Q6PGN9: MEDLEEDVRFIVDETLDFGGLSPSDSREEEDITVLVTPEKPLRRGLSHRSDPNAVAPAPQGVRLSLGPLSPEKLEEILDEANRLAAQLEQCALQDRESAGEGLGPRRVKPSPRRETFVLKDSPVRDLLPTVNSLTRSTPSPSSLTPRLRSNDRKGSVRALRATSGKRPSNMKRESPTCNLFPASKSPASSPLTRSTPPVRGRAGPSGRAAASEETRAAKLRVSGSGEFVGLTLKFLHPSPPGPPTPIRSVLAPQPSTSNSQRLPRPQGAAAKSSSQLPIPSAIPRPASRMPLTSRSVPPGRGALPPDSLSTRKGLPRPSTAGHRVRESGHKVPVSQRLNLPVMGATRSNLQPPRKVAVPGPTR
UniProt Q9P2B2: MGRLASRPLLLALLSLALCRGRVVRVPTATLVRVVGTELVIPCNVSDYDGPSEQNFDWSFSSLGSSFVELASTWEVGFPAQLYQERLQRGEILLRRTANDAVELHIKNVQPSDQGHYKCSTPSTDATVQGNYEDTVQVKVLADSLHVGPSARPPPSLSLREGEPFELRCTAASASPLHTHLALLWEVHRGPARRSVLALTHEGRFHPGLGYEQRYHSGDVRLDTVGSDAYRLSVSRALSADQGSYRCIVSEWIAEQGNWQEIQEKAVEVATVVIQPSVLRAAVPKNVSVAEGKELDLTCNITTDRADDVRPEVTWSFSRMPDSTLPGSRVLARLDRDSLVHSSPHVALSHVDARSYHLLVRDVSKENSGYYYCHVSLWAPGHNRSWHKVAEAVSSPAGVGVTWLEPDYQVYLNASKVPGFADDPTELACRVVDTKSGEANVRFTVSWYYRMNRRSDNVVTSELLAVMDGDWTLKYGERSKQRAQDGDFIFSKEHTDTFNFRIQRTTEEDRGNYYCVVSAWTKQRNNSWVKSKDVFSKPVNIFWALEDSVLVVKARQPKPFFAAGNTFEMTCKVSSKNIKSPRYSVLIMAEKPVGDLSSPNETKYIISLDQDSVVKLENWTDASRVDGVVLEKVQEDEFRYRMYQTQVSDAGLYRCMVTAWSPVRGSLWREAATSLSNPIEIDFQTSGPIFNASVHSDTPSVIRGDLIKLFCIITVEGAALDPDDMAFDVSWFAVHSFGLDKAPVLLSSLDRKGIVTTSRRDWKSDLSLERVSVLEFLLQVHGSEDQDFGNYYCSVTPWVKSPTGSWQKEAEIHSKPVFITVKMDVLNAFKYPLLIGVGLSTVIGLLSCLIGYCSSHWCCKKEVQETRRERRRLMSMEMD
UniProt P06737: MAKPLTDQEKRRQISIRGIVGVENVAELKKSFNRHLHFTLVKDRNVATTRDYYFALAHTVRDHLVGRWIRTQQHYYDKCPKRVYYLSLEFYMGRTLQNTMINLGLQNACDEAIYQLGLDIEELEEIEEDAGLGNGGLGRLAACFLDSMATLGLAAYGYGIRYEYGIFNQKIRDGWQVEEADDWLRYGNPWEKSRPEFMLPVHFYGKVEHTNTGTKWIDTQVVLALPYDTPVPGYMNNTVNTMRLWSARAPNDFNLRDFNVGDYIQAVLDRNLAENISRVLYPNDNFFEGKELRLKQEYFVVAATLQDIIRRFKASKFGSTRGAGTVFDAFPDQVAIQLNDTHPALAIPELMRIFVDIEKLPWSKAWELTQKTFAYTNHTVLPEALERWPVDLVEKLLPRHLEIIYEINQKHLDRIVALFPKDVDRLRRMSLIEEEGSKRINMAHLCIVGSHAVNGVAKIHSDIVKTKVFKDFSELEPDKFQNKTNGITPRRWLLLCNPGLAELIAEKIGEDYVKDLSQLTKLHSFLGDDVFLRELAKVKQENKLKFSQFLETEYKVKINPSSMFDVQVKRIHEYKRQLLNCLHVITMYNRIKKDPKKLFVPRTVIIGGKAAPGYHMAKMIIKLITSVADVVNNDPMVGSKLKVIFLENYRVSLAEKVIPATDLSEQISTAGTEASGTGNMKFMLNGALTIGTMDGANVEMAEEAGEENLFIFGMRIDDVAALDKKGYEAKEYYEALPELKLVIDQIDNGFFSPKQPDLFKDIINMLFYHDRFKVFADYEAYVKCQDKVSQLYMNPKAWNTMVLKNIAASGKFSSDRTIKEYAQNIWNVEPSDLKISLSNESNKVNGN
UniProt P49720: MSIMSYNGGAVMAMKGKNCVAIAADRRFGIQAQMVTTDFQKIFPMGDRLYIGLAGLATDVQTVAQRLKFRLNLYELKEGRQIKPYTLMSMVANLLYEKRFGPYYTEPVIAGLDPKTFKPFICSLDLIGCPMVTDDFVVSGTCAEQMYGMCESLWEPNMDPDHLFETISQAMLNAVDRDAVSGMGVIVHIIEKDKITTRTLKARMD
UniProt P15151: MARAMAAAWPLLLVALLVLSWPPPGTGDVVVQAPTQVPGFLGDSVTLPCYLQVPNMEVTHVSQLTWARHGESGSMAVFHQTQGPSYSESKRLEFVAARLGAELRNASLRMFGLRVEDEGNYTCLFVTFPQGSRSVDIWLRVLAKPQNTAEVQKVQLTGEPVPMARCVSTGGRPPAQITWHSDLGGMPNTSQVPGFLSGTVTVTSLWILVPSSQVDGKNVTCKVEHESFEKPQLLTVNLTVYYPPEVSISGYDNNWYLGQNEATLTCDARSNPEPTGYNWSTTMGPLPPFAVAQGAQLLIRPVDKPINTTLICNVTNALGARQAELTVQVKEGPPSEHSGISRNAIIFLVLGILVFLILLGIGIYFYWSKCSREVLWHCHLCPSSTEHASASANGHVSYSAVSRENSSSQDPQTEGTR
UniProt Q14671: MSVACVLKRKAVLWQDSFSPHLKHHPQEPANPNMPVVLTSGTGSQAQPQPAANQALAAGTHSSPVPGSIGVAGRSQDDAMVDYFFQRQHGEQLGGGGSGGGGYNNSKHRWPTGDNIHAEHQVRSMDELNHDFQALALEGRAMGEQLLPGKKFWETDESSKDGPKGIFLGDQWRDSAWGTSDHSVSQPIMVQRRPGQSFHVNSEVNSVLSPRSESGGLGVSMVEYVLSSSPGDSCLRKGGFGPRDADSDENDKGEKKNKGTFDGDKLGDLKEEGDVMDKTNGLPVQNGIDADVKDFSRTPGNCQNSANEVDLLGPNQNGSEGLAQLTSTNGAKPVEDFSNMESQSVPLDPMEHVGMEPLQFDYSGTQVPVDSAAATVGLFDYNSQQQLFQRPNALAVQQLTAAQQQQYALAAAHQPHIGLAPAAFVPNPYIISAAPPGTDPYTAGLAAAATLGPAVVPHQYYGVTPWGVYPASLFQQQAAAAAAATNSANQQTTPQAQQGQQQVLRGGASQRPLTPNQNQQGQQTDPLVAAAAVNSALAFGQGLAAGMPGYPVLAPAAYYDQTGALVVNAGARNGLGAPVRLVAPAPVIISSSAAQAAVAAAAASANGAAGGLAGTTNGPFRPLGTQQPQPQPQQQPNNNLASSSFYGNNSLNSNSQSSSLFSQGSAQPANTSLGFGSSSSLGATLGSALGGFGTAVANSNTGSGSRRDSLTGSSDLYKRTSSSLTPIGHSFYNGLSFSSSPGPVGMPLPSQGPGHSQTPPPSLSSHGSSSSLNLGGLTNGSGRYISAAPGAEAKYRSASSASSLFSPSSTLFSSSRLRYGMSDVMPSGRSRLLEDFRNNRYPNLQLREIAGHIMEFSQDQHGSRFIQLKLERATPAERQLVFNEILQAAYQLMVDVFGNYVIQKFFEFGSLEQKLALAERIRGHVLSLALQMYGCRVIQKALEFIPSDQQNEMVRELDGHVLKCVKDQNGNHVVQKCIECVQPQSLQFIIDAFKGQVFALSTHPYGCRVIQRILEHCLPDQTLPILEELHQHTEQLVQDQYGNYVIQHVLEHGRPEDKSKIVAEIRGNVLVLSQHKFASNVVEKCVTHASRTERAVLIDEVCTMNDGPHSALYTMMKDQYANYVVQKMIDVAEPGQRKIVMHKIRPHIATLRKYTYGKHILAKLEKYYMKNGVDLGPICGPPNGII
UniProt Q96PU8: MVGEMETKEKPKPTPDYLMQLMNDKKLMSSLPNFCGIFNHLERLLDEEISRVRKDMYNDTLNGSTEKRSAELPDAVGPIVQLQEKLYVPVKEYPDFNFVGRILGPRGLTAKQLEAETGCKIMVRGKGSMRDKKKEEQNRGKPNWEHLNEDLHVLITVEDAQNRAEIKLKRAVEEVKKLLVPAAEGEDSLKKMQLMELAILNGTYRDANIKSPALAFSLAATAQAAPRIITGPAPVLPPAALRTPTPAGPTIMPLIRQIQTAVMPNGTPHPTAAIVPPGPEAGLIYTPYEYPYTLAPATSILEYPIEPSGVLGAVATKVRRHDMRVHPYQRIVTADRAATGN
UniProt Q9NR77: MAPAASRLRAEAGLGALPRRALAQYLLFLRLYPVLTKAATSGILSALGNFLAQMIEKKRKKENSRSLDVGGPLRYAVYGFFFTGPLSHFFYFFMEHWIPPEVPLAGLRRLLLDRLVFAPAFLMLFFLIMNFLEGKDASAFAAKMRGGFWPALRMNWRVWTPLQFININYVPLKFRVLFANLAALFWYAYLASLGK
UniProt P47897: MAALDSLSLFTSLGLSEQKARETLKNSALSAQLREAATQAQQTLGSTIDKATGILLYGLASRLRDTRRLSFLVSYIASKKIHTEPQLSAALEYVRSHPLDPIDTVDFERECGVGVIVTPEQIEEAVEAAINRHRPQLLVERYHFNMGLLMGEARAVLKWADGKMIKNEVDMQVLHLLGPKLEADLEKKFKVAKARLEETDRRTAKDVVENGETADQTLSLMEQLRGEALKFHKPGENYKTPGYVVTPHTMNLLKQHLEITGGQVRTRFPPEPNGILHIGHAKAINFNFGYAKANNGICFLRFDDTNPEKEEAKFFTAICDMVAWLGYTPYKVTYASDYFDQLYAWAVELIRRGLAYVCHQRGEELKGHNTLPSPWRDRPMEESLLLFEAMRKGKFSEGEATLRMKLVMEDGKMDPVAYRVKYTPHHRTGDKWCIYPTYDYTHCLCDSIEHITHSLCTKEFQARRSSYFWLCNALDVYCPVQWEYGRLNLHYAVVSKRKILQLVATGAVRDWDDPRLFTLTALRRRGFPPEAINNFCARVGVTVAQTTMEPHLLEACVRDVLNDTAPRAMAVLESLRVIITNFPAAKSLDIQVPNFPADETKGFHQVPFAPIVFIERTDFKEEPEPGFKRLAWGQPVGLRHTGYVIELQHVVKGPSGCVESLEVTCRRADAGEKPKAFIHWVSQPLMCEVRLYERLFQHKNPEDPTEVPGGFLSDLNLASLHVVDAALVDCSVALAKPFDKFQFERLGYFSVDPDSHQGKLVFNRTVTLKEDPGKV

Columns and labels:
Experiment in all cases: log2 fold change, soluble protein after heating vs DMSO (PISA); higher = thermal stabilisation; K562 cells, 10 uM, 30 min; active = over 0.2 and 3.5 SD of the protein, either way, in both replicates (recomputed)
saracatinib = compound: CN1CCN(CCOc2cc(OC3CCOCC3)c3c(Nc4c(Cl)ccc5c4OCO5)ncnc3c2)CC1 [saracatinib]
Method in brief: (§1)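 Quantification of soluble protein used TMTpro 16plex LC-MS/MS, with channel sums equalised. Samples were the supernatant after 21,000xg for 90 min of pooled aliquots from K562 cells (2×10^6 cells/mL) treated with 10 μM compound for 30 min, heated for 3 min over 48°C-58°C, and extracted in PBS with 0.5% NP-40 at 4°C. Values, from duplicates, describe thermal stability against control samples on a log2 fold-change scale.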

sotrastaurin = compound: CN1CCN(c2nc(C3=C(c4c[nH]c5ccccc45)C(=O)NC3=O)c3ccccc3n2)CC1 [sotrastaurin]
Method in brief: as §1

alvocidib = compound: CN1CC[C@H](c2c(O)cc(O)c3c(=O)cc(-c4ccccc4Cl)oc23)[C@H](O)C1 [alvocidib]
Method in brief: as §1

Tubastatin A = compound: CN1CCc2c(c3ccccc3n2Cc2ccc(C(=O)NO)cc2)C1 [Tubastatin A]
Method in brief: as §1

[1] = compound: CNC(=O)C1=CC=CC=C1NC2=NC(=NC=C2Cl)NC3=C(C=C(C=C3)N4CCOCC4)OC
Method in brief: as §1

defactinib = compound: CNC(=O)c1ccc(Nc2ncc(C(F)(F)F)c(NCc3nccnc3N(C)S(C)(=O)=O)n2)cc1 [defactinib]
Method in brief: as §1

rucaparib = compound: CNCc1ccc(-c2[nH]c3cc(F)cc4c3c2CCNC4=O)cc1 [rucaparib]
Method in brief: as §1

[2] = compound: CNc1nc(-c2ccc3c(N)n[nH]c3c2)cc(N2C[C@@H](C(=O)NC3CCCCC3)CC[C@H]2C)n1
Method in brief: as §1

encorafenib = compound: COC(=O)N[C@@H](C)CNc1nccc(-c2cn(C(C)C)nc2-c2cc(Cl)cc(NS(C)(=O)=O)c2F)n1 [encorafenib]
Method in brief: as §1

[3] = compound: COC(=O)[C@H](CCSC)NC(=O)C1=C(C=C(C=C1)NC[C@H](CS)N)C2=CC=CC=C2
Method in brief: as §1

[4] = compound: COC1=CC=C(C=C1)CN2C=CC3=C2C=C(C=C3)C(=O)NO
Method in brief: as §1

filanesib = compound: CON(C)C(=O)N1N=C(c2cc(F)ccc2F)S[C@@]1(CCCN)c1ccccc1 [filanesib]
Method in brief: as §1

zotarolimus = compound: CO[C@H]1C[C@@H]2CC[C@@H](C)[C@@](O)(O2)C(=O)C(=O)N2CCCC[C@H]2C(=O)O[C@H]([C@H](C)C[C@@H]2CC[C@H](n3cnnn3)[C@H](OC)C2)CC(=O)[C@H](C)/C=C(\C)[C@@H](O)[C@@H](OC)C(=O)[C@H](C)C[C@H](C)/C=C/C=C/C=C/1C [zotarolimus]
Method in brief: as §1

idasanutlin = compound: COc1cc(C(=O)O)ccc1NC(=O)[C@@H]1N[C@@H](CC(C)(C)C)[C@](C#N)(c2ccc(Cl)cc2F)[C@H]1c1cccc(Cl)c1F [idasanutlin]
Method in brief: as §1

alisertib = compound: COc1cc(Nc2ncc3c(n2)-c2ccc(Cl)cc2C(c2c(F)cccc2OC)=NC3)ccc1C(=O)O [alisertib]
Method in brief: as §1

[5] = compound: COc1cc2nc(-c3cc(F)ccc3O)nc(N[C@@H]3CNC[C@H]3C(C)(C)O)c2cc1OC
Method in brief: as §1

[6] = compound: COc1cccc2cc(-c3nc([C@H]4CC[C@H](C(=O)O)CC4)n4ncnc(N)c34)[nH]c12
Method in brief: as §1

lapatinib = compound: CS(=O)(=O)CCNCc1ccc(-c2ccc3ncnc(Nc4ccc(OCc5cccc(F)c5)c(Cl)c4)c3c2)o1 [lapatinib]
Method in brief: as §1

pictilisib = compound: CS(=O)(=O)N1CCN(Cc2cc3nc(-c4cccc5[nH]ncc45)nc(N4CCOCC4)c3s2)CC1 [pictilisib]
Method in brief: as §1

gefitinib = compound: COc1cc2ncnc(Nc3ccc(F)c(Cl)c3)c2cc1OCCCN1CCOCC1 [gefitinib]
Method in brief: as §1

Measured: log2 fold change

PRXL2A (UniProt Q9BRX8)
inactive: saracatinib 0.177 | sotrastaurin 0.071 | alvocidib -0.018 | Tubastatin A 0.044 | [1] -0.125 | defactinib -0.039 | rucaparib -0.128 | [2] -0.133 | encorafenib -0.054 | [3] -0.119 | [4] -0.17 | filanesib -0.021 | zotarolimus 0.008 | idasanutlin 0.186 | alisertib 0.482 | [5] 0.221 | [6] 0.039 | lapatinib -0.033 | pictilisib -0.182

PSMD13 (UniProt Q9UNM6)
inactive: saracatinib -0.073 | sotrastaurin 0 | Tubastatin A 0.038 | [1] 0.027 | defactinib 0.068 | rucaparib 0.024 | [2] 0.043 | encorafenib 0.063 | [3] 0.003 | [4] -0.127 | filanesib 0.095 | zotarolimus 0.009 | idasanutlin -0.054 | alisertib -0.04 | [5] -0.025 | gefitinib -0.026 | [6] -0.05 | lapatinib 0.038 | pictilisib -0.01

PSMA1 isoform 2 (UniProt P25786)
inactive: saracatinib 0.021 | sotrastaurin 0.008 | alvocidib 0.075 | Tubastatin A -0.074 | [1] 0.016 | defactinib 0.047 | rucaparib -0.003 | [2] -0.014 | encorafenib 0.012 | [3] 0.025 | [4] -0.026 | filanesib 0.045 | zotarolimus -0.018 | idasanutlin 0.042 | alisertib -0.096 | [5] -0.051 | gefitinib -0.021 | [6] -0.009 | lapatinib 0.06 | pictilisib -0.032

Two entries picked at random from the list so far, as already listed:
PRXL2A (UniProt Q9BRX8)
inactive: saracatinib 0.177 | sotrastaurin 0.071 | alvocidib -0.018 | Tubastatin A 0.044 | [1] -0.125 | defactinib -0.039 | rucaparib -0.128 | [2] -0.133 | encorafenib -0.054 | [3] -0.119 | [4] -0.17 | filanesib -0.021 | zotarolimus 0.008 | idasanutlin 0.186 | alisertib 0.482 | [5] 0.221 | [6] 0.039 | lapatinib -0.033 | pictilisib -0.182

PSMD13 (UniProt Q9UNM6)
inactive: saracatinib -0.073 | sotrastaurin 0 | Tubastatin A 0.038 | [1] 0.027 | defactinib 0.068 | rucaparib 0.024 | [2] 0.043 | encorafenib 0.063 | [3] 0.003 | [4] -0.127 | filanesib 0.095 | zotarolimus 0.009 | idasanutlin -0.054 | alisertib -0.04 | [5] -0.025 | gefitinib -0.026 | [6] -0.05 | lapatinib 0.038 | pictilisib -0.01

Carrying on:

PYROXD1 (UniProt Q8WU10)
inactive: saracatinib -0.004 | sotrastaurin -0.169 | alvocidib 0.046 | Tubastatin A 0.032 | [1] -0.004 | defactinib -0.253 | [2] -0.007 | [3] -0.007 | [4] -0.11 | filanesib 0.288 | zotarolimus -0.342 | idasanutlin -0.039 | alisertib 0.101 | [5] -0.056 | gefitinib -0.143 | [6] 0.139 | lapatinib 0.15

PSRC1 (UniProt Q6PGN9)
inactive: saracatinib -0.064 | sotrastaurin 0.003 | alvocidib 0.238 | Tubastatin A 0.088 | [1] 0.029 | defactinib 0.021 | rucaparib 0.036 | [2] -0.022 | encorafenib -0.026 | [3] -0.009 | [4] 0.014 | filanesib 0.203 | zotarolimus -0.068 | idasanutlin 0.073 | alisertib -0.165 | [5] 0.058 | gefitinib 0.018 | [6] -0.185 | lapatinib -0.03 | pictilisib -0.029

PYCR1 isoform 3 (UniProt P32322)
inactive: saracatinib 0.045 | sotrastaurin -0.005 | alvocidib -0.037 | Tubastatin A -0.003 | [1] 0.036 | rucaparib 0.018 | [2] 0 | encorafenib -0.029 | [3] -0.016 | [4] 0.155 | filanesib -0.157 | zotarolimus 0.019 | idasanutlin -0.036 | alisertib -0.044 | [5] -0.002 | gefitinib 0.013 | [6] 0.018 | lapatinib 0.04 | pictilisib -0.015

PTGFRN (UniProt Q9P2B2)
inactive: saracatinib 0.029 | sotrastaurin 0.082 | Tubastatin A 0 | [1] -0.092 | defactinib -0.049 | rucaparib -0.024 | [2] 0.056 | encorafenib -0.004 | [3] 0.053 | [4] 0.006 | filanesib 0.129 | zotarolimus -0.021 | idasanutlin 0.073 | alisertib 0.01 | [5] 0.139 | gefitinib 0.025 | [6] 0.124 | lapatinib 0.036 | pictilisib 0.122

PYGL (UniProt P06737)
inactive: saracatinib 0.063 | sotrastaurin -0.006 | Tubastatin A -0.007 | [1] -0.185 | defactinib -0.039 | rucaparib -0.028 | [2] -0.065 | encorafenib 0.037 | [3] 0.008 | [4] -0.028 | filanesib 0.043 | zotarolimus -0.007 | idasanutlin -0.015 | alisertib -0.03 | [5] 0.095 | gefitinib -0.013 | [6] 0.051 | lapatinib -0.075 | pictilisib -0.122

PSMB3 (UniProt P49720)
inactive: saracatinib 0.031 | sotrastaurin 0 | alvocidib 0.066 | Tubastatin A -0.116 | [1] 0.106 | defactinib 0.073 | rucaparib 0.001 | [2] 0.001 | encorafenib 0.029 | [3] 0.022 | [4] -0.053 | filanesib 0.058 | zotarolimus 0.013 | idasanutlin 0.014 | alisertib -0.038 | [5] -0.032 | gefitinib 0 | [6] 0.022 | lapatinib 0.045 | pictilisib -0.075

QRICH1 (UniProt Q2TAL8)
inactive: saracatinib -0.019 | sotrastaurin -0.076 | Tubastatin A 0.156 | [1] -0.036 | defactinib -0.271 | rucaparib -0.008 | [2] -0.004 | encorafenib 0.097 | [3] 0.169 | [4] 0.015 | filanesib 0.004 | zotarolimus -0.022 | idasanutlin -0.072 | alisertib 0.071 | [5] 0.08 | gefitinib 0.137 | [6] 0.032 | lapatinib 0.011

PUF60 (UniProt Q9UHX1)
inactive: saracatinib 0 | sotrastaurin -0.035 | Tubastatin A 0.048 | [1] -0.197 | defactinib -0.173 | rucaparib -0.003 | [2] -0.007 | encorafenib 0.049 | [3] -0.012 | [4] 0.007 | filanesib 0.087 | zotarolimus 0.026 | idasanutlin 0.022 | alisertib -0.05 | [5] -0.028 | gefitinib 0.014 | [6] 0.008 | lapatinib 0.063 | pictilisib 0

PVR (UniProt P15151)
inactive: saracatinib 0.001 | sotrastaurin 0.041 | alvocidib -0.072 | Tubastatin A 0.024 | defactinib -0.107 | rucaparib -0.017 | [2] 0.023 | encorafenib -0.023 | [3] -0.003 | filanesib 0.015 | zotarolimus 0.004 | idasanutlin -0.038 | alisertib -0.066 | [5] 0.011 | [6] 0.081 | lapatinib 0.1 | pictilisib 0.035

PUM1 isoform 3 (UniProt Q14671)
inactive: saracatinib -0.01 | sotrastaurin -0.023 | Tubastatin A 0.004 | [1] -0.019 | defactinib -0.078 | rucaparib 0.082 | [2] -0.039 | encorafenib -0.01 | [3] 0.001 | [4] -0.003 | filanesib 0.007 | zotarolimus -0.023 | idasanutlin 0.006 | alisertib -0.039 | [5] -0.025 | gefitinib 0.025 | [6] -0.002 | lapatinib 0.004 | pictilisib -0.012

QKI (UniProt Q96PU8)
inactive: saracatinib -0.004 | sotrastaurin -0.001 | Tubastatin A 0.062 | [1] -0.044 | rucaparib -0.006 | [2] -0.036 | encorafenib -0.036 | [3] 0.004 | [4] -0.004 | filanesib -0.004 | zotarolimus -0.026 | idasanutlin -0.032 | alisertib -0.077 | [5] -0.079 | gefitinib 0.019 | [6] 0.011 | lapatinib -0.007 | pictilisib -0.032
active: defactinib -0.23

PXMP2 (UniProt Q9NR77)
inactive: saracatinib 0.076 | sotrastaurin 0.03 | alvocidib -0.022 | Tubastatin A 0.068 | [1] -0.022 | defactinib 0.004 | rucaparib -0.014 | [2] -0.019 | encorafenib -0.009 | [3] -0.027 | [4] -0.013 | filanesib -0.024 | zotarolimus -0.033 | idasanutlin -0.05 | alisertib -0.071 | [5] -0.024 | gefitinib 0.042 | [6] 0.09 | lapatinib 0.01 | pictilisib 0.053

QARS (UniProt P47897)
inactive: saracatinib -0.121 | sotrastaurin -0.156 | alvocidib 0.261 | Tubastatin A 0.103 | [1] 0.005 | defactinib 0.292 | rucaparib 0.542 | [2] 0.14 | encorafenib 0.227 | [3] -0.001 | [4] -0.032 | filanesib 0.425 | zotarolimus 0.065 | idasanutlin 0.228 | alisertib -0.06 | [5] -0.059 | gefitinib -0.033 | [6] -0.281 | lapatinib 0.129 | pictilisib -0.139
